According to patent US20190328788A1 (GENAGON THERAPEUTICS, published 2019):
No constants are given. Whether binding was seen depends on the method and setting. Some results given as binding are weak or reduced against the parent protein; the word gives no strength.

By UniProt entry, the sequences of proteins in these tests, tags left out. Residues count along the entry.
UniProt P01137, residues 279-390: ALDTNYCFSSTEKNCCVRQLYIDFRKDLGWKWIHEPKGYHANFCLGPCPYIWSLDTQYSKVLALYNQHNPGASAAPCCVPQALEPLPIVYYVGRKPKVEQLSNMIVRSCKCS

T1: Cleft Lip and Palate Transmembrane protein 1 (CLPTM1), human (human) (UniProt O96005)
T1 sequence: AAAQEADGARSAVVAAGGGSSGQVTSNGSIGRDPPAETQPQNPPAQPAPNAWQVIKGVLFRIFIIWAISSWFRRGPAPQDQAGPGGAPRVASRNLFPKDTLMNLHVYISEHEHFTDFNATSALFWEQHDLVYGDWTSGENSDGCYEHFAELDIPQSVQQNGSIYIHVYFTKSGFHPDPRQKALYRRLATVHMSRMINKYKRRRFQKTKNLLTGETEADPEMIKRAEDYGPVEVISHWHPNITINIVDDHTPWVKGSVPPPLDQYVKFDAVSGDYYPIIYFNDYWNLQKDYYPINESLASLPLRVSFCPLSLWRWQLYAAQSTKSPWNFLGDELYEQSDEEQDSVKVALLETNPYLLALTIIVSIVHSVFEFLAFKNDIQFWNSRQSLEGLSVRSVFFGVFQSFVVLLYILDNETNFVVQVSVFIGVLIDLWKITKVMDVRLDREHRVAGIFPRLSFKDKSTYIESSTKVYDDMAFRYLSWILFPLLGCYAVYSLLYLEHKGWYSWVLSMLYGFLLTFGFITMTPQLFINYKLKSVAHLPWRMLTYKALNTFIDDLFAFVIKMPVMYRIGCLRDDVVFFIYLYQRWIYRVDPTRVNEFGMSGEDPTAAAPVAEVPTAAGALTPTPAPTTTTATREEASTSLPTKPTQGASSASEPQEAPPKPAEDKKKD

B1: transforming growth factor-beta 2 (TGF-β2) (ligand, UniProt P61812 303-414, looked up)
chain: ALDAAYCFRNVQDNCCLRPLYIDFKRDLGWKWIHEPKGYNANFCAGACPYLWSSDTQHSRVLSLYNTINPEASASPCCVSQDLEPLTILYYIGKTPKIEQLSNMIVKSCKCS
B2: transforming growth factor-beta 3 (TGF-β3) (ligand, UniProt P10600 301-412, looked up)
chain: ALDTNYCFRNLEENCCVRPLYIDFRQDLGWKWVHEPKGYYANFCSGPCPYLRSADTTHSTVLGLYNTLNPEASASPCCVPQDLEPLTILYYVGRTPKVEQLSNMVVKSCKCS

The molecules below were run against T1, Cleft Lip and Palate Transmembrane protein 1 (CLPTM1), human (human) (assay: restates the peptide ELISA of Example 1).

binding, binds:
transforming growth factor-beta 1 (TGF-β1) (from UniProt P01137 279-390) (ligand), B1, B2
